Experimental data taken from patent publication US20150283120A1, “ANTIBIOTIC METHODS AND COMPOSITIONS FOR BACTERIA INFECTIONS” (THE UNIVERSITY OF CHICAGO, priority 2012, published 2015).
For some assays here: For at least one compound, name, drawing or mass did not settle the structure. Some entries share one result that the patent states for a list of compounds.

What was measured:
Assay type in all cases: cell-based, Staphylococcus aureus
VRS2 = details: with vancomycin
Source text: (§1) As shown in the analysis of the checkerboard assays (Table 6), gossypol fully potentiated vancomycin (FIC i<0.5) in hVISA, VISA, VRS2 and VRS1. […] Clomiphene partially potentiated vancomycin in hVISA, VISA, and VRS1 and it fully potentiated in strain VRS2.

VRS1 = details: with vancomycin
Source text: as §1

[1] = tested on: MRSA strain USA300-isolate 923; experiment: Checkerboard MIC testing of compounds with oxacillin; details: strain 923; in at least one combination (well)
vraR transcription = experiment: Tertiary screen: qRT-PCR of vraR in strain 923

Compound | Synergy category (VRS2) | Synergy category (VRS1) | FICi (FIC index) with oxacillin [1] | Effect on vraSR Transcription: With oxacillin (vraR transcription; compound 10 μM + oxacillin 2 μg/mL) | Effect on vraSR Transcription: Compound alone (vraR transcription; compound 10 μM, no oxacillin)
Cc1cc2c(C(C)C)c(O)c(O)c(C=O)c2c(O)c1-c1c(C)cc2c(C(C)C)c(O)c(O)c(C=O)c2c1O [Gossypol, 2,2′-bis-(Formyl-1,6,7-trihydroxy-5-isopropyl-3-methylnaphthalene)] | fully potentiated (fully potentiated vancomycin (FIC i<0.5)) | fully potentiated (fully potentiated vancomycin (FIC i<0.5)) | ≤ 0.5 | – | –
C[n+]1cc2c3c(ccc2c2ccc4cc5c(cc4c21)OCO5)OCO3 [Sanguinarine] | – | – | – | super-stimulate | None
